Measured values: publication PMC11599027
These are yes or no findings as the source states them, for the method shown. Some results given as binding are weak or reduced against the parent protein; the word gives no strength.

The chains behind the UniProt entries cited, without tags or fusion partners. Residues count along the entry.
UniProt P30533, residues 35-357: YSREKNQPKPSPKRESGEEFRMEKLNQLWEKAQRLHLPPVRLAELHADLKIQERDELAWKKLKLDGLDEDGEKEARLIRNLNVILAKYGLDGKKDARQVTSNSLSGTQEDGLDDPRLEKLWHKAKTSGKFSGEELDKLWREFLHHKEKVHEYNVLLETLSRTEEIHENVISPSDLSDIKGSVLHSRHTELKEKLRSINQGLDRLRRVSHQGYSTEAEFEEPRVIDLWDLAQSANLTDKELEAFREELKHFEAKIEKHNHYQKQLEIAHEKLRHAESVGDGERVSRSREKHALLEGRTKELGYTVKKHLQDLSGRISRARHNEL
UniProt Q07954, residues 20-4419: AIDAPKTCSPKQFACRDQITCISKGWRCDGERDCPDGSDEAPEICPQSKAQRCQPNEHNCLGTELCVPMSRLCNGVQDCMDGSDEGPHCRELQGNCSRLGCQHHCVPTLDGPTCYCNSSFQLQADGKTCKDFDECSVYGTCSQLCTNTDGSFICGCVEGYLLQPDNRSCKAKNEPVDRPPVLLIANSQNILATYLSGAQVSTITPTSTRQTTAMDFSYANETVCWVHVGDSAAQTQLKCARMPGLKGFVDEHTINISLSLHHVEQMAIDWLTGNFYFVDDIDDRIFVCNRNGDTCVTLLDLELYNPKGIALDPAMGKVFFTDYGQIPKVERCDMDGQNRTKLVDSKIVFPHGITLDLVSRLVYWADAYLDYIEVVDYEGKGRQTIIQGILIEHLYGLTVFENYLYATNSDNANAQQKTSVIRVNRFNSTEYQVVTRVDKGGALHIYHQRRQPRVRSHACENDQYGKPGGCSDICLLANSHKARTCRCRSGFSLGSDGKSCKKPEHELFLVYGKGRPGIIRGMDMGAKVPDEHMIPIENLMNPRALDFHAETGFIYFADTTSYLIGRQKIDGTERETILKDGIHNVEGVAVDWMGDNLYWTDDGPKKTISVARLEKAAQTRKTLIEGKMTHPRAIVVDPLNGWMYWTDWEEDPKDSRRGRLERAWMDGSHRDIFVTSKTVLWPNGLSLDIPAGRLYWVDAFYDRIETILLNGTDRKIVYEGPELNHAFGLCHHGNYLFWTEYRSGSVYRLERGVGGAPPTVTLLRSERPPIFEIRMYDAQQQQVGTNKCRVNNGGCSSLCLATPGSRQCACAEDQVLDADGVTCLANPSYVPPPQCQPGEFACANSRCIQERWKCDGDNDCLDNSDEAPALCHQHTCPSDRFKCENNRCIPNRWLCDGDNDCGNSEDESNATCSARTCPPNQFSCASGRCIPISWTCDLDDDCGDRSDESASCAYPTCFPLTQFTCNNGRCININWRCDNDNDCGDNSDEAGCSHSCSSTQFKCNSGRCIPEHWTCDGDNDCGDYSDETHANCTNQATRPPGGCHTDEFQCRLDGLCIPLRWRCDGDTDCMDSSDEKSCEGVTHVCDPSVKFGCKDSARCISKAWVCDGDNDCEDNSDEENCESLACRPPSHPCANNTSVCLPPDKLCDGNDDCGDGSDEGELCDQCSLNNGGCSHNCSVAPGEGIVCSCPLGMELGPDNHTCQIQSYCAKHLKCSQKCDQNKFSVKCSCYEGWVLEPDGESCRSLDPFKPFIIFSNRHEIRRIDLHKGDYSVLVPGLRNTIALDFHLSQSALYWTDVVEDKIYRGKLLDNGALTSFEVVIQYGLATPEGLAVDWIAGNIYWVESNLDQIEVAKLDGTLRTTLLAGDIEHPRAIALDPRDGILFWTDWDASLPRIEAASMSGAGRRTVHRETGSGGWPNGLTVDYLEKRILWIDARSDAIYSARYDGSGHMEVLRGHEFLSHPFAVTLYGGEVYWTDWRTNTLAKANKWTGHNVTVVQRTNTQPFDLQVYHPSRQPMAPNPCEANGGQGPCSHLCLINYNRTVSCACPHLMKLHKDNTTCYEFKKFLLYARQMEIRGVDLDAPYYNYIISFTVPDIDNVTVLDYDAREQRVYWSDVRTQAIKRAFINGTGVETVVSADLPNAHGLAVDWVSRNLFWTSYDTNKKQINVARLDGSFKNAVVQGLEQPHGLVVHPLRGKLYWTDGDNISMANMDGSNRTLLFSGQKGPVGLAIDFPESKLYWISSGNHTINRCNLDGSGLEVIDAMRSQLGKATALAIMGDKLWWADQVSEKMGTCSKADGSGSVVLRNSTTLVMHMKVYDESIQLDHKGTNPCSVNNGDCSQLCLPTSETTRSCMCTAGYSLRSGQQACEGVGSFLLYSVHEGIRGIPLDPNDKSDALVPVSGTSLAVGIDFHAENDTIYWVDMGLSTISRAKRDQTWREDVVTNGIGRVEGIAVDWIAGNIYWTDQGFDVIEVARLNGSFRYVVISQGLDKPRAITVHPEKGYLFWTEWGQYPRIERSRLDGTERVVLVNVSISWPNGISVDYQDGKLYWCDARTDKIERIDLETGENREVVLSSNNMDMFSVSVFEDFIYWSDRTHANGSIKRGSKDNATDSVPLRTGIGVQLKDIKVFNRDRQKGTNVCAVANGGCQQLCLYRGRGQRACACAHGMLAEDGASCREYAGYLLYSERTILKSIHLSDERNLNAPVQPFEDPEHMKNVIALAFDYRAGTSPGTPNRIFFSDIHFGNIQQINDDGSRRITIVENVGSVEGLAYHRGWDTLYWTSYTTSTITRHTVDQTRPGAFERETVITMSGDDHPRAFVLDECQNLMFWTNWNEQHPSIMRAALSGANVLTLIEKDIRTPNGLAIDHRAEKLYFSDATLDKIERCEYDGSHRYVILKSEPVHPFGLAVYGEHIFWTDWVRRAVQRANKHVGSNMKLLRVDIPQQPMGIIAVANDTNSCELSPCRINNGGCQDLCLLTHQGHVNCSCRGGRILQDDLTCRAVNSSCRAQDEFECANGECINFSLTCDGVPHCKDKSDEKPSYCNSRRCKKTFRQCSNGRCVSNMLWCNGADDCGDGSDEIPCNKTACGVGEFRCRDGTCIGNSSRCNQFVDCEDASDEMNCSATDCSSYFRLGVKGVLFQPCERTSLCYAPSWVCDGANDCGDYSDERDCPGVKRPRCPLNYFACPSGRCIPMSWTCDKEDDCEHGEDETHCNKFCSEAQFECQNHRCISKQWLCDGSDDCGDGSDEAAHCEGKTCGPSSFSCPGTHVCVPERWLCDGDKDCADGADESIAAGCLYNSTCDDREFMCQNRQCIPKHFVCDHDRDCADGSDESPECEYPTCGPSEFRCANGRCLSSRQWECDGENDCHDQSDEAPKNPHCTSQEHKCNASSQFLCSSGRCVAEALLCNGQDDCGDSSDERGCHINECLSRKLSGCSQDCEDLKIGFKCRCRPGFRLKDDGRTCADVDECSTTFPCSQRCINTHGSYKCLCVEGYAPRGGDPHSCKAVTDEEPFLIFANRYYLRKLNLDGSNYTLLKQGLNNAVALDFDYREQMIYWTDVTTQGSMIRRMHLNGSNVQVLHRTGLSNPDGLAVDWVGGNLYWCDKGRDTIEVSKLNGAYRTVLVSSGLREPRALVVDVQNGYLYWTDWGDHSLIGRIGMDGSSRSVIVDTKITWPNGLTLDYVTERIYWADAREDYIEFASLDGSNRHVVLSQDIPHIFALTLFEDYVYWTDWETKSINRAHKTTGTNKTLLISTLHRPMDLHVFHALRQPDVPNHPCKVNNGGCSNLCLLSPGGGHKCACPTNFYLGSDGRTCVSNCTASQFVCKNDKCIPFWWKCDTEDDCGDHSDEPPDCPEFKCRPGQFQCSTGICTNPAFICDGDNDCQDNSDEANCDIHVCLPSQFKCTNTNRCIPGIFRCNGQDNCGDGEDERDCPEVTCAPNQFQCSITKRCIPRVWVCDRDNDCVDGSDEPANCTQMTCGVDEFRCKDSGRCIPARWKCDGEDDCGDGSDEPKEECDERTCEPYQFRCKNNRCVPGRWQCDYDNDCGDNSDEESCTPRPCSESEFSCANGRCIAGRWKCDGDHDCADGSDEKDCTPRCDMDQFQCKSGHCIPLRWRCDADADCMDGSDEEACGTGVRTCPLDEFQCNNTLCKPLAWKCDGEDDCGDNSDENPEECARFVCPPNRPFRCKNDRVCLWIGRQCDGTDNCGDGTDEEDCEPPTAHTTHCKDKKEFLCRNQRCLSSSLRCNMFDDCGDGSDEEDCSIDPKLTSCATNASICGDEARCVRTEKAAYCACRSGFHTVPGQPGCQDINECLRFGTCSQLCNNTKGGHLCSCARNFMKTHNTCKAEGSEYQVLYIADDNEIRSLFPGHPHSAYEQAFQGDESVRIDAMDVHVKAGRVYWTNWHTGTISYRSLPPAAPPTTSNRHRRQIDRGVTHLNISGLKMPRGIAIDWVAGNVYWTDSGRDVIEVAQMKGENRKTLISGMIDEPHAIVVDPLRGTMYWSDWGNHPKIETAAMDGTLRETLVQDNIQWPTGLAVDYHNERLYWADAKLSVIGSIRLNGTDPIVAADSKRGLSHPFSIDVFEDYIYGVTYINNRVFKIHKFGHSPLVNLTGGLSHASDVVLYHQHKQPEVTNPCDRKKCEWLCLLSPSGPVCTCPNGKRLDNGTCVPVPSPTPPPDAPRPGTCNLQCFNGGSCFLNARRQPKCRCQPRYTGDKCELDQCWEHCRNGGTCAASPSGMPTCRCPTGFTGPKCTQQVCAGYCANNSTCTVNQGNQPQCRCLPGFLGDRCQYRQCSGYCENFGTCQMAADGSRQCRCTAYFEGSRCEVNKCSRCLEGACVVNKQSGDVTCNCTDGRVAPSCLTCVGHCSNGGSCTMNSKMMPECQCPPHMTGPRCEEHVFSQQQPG

Key:
[1] = target: recombinant human RAP protein (protein associated with the LRP1 receptor) (human) (UniProt P30533); assay: SPR; both purified
[2] = target: T1, receptor-activated alpha-2-macroglobulin (human) (UniProt P01023); assay: affinity chromatography; only the target purified
T1 sequence: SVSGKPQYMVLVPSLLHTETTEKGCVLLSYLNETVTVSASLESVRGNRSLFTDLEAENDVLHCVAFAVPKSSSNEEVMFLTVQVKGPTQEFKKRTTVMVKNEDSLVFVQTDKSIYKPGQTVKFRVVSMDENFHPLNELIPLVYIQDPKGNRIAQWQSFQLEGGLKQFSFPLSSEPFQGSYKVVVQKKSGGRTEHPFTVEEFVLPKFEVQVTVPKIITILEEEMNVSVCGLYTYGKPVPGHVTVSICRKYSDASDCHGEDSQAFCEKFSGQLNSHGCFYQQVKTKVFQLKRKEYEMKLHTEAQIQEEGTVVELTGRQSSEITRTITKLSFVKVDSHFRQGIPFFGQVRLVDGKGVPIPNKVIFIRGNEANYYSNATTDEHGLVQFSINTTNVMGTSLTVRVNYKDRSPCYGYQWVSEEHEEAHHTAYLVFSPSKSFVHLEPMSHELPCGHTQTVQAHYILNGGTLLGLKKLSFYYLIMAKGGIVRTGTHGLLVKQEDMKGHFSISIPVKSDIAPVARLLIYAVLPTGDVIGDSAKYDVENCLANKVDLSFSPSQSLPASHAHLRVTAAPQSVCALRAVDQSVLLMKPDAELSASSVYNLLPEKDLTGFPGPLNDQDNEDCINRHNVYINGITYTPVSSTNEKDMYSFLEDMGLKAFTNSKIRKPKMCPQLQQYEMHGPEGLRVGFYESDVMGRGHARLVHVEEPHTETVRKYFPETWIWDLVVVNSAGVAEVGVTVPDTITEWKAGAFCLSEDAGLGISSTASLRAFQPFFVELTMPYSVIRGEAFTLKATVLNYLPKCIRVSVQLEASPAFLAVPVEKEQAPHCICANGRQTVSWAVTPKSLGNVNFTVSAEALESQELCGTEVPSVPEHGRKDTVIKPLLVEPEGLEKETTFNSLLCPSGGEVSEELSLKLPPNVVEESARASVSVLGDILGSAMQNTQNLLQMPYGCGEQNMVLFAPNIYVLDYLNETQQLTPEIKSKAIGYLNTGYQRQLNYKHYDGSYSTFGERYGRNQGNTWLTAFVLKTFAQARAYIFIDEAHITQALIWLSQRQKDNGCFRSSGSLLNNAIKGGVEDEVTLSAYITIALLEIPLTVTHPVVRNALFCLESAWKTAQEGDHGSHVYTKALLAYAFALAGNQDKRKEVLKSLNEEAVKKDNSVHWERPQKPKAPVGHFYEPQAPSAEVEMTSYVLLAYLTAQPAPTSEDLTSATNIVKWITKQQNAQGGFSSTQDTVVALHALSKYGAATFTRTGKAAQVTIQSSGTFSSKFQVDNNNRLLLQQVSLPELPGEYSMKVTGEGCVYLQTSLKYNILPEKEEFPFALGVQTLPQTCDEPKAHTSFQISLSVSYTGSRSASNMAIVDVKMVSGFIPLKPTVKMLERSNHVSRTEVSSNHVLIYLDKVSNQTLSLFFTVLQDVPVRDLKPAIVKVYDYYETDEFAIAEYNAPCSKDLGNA

binding [1]: binds
binding [2]: binds
Substance: LRP1 ectodomain (sLRP1) purified from human plasma (from UniProt Q07954-1 20-4419) (receptor)
